Assay results as given in article PMC4070083.
No constants are given. Whether binding was seen depends on the method and setting. Binding can be weak; no strength is given.

Columns and labels:
[1] = target: SlTCP6 (tomato (Solanum lycopersicum)) (UniProt G3BGU6); assay: two-hybrid; matrix of all combinations; GAL4 BD baits (pDEST32) in yeast PJ69-4α mated with GAL4 AD preys (pDEST22) in PJ69-4a; growth on SD -Leu -Trp -Ade (-LTA) and -Leu -Trp -His (-LTH) with 5, 10 or 15 mM 3-AT; plates at 20°C, scored after 5 d; in triplicate
[2] = target: SlTCP21 (tomato (Solanum lycopersicum)) (UniProt G3BGW1); assay: as above

Substance	binding [1]	binding [2]
SlTCP13 (from UniProt G3BGV3)	binds	binds
SlTCP12 (from UniProt A0A3Q7JKS5)	binds	binds
